Reference: paper PMC9958131 (Nature Communications, 2023)

Tested on: cathepsins B, S, and H
Experiment: Proteolytic mapping (ProtMap) of native and citrullinated autoantigens by cathepsins B, S, and H with LFQ-MS
Assay type: biochemical, human
Settings: protein-level LFQ-MS abundance in cathepsin B; for PAD2-Citrullinated Replicate 2 (protein abundance) / PAD2-Citrullinated Replicate 3 (protein abundance) / PAD2-Citrullinated Replicate 4 (protein abundance): H digest of PAD2-citrullinated vimentin
Experimental: Prior to proteolytic mapping, citrullinated antigens were generated by incubating recombinant human antigens—hnRNP A2/B1 (RA33; custom-made as previously described by in ref. [24]), fibrinogen (Cayman Chemical), and vimentin (PeproTech)—with Sf9-purified peptidylarginine deiminase 2 or 4 (PAD2 or PAD4; Inova) at a 17:1 mass ratio in citrullination buffer (100 mM Tris, 1 mM DTT, 5 mM CaCl2, pH 7.5) for 4 h at 37 °C. Native antigens were diluted in the same buffer without PAD enzymes and without incubation at 37 °C to prevent degradation. Citrullination was confirmed by anti-peptidylcitrulline (clone F95, EMD Millipore) immunoblotting. Native and citrullinated antigen pools were split into four 15 µg replicates per condition before digestion (except hnRNP A2/B1, which was digested in double-volume replicates of three and later split into two each, total n = 6, prior to MS) by cathepsins B, S, and H (Millipore Sigma). Digestions were incubated in digestion buffer (citrate phosphate buffer, 4 mM DTT, 1 mM EDTA, pH 5.0) for 4 h at 37 °C. Fibrinogen and vimentin were digested at a 60:1 antigen:cathepsin mass ratio per cathepsin, and hnRNP A2/B1 was digested at a 150:1 antigen:cathepsin mass ratio per cathepsin to achieve full digestion of the protein. Digestion was confirmed by Coomassie Blue staining, and the remaining samples were centrifuged through a 10-kDa-spin filter (Microcon, Millipore) to remove undigested protein fragments. The resulting peptide repertoires were then analyzed by LFQ–MS.
Prior to MS, the samples were reduced and alkylated by incubating in 10 mM Tris (2-Carboxyethyl) phosphine hydrochloride (TCEP, v/v) and 50 mM chloroacetamide (CAA, v/v) for 1 h at room temperature. The samples were then desalted using C18 StageTips (3 M Empore) after acidifying with 1% trifluoroacetic acid (TFA). The peptide solution was vacuum-dried and stored at ‒80 °C. The peptide samples were analyzed on an Orbitrap Fusion Lumos Tribrid mass spectrometer interfaced with an Ultimate 3000 RS Autosampler nanoflow liquid chromatography system (Thermo Scientific). The dried peptides were reconstituted in 15 µL of 0.5% formic acid (FA) and then loaded onto a trap column (Acclaim™ PepMap™ 100 LC C18, 5 μm, 100 μm × 2 cm, Thermo Scientific) at a flow rate of 8 μL/min. Peptides were separated on an analytical column (Easy-Spray™ PepMap™ RSLC C18, 2 μm, 75 μm × 50 cm, Thermo Scientific) at a flow rate of 0.3 μL/min using a linear gradient with mobile phases consisting of 0.1% FA in water and in 95% acetonitrile (ACN) for 120 min. The mass spectrometer was operated in data-dependent acquisition (DDA) mode. The MS1 (precursor ions) scan range for a full survey scan was acquired from 300 to 1800 m/z in the top speed setting with a resolution of 120,000 at an m/z of 200. The AGC target for MS1 was set as 1 × 10^6, and the maximum injection time was 100 milliseconds. The most intense ions with charge states of 2–5 were isolated in a 3-s cycle, fragmented using higher-energy collisional dissociation (HCD) fragmentation with 32% normalized collision energy, and detected at a mass resolution of 50,000 at an m/z of 200. The AGC target for MS/MS (fragments) was set as 5 × 10^4, and the ion filling time was 100 milliseconds. The precursor isolation window was set to 1.6 m/z with a 0.4 m/z offset. The dynamic exclusion was set to 30 s, and singly charged ions were rejected. Internal calibration was carried out using the lock mass option (m/z 445.1200025) from ambient air[59]–[61].
Proteome Discoverer (version 2.4.1.15, Thermo Scientific) was used for the identification and quantitation of proteins. During MS/MS preprocessing, the top 10 peaks in each window of 100 m/z were selected for database search. […]

[1] = H digest of PAD4-citrullinated vimentin, replicate 3
[2] = H digest of PAD4-citrullinated vimentin

Row | Substance | PAD2-Citrullinated Replicate 2 (protein abundance) (replicate 2) | PAD2-Citrullinated Replicate 3 (protein abundance) (replicate 3) | PAD2-Citrullinated Replicate 4 (protein abundance) | PAD4-Citrullinated Replicate 2 (protein abundance) (H digest of PAD4-citrullinated vimentin, replicate 2) | PAD4-Citrullinated Replicate 3 (protein abundance) [1] | PAD4-Citrullinated Replicate 4 (protein abundance) [2] | Native Replicate 3 (protein abundance) (H digest of native vimentin, replicate 3) | PAD4-Citrullinated Replicate 1 (protein abundance) (H digest of PAD4-citrullinated vimentin, replicate 1) | Native Replicate 2 (protein abundance) (H digest of native vimentin, replicate 2)
1 | ASPGVVVDIAHSPPAKKK [PAD4_31] | 69498390144 | 75023587211 | 63482555894 | 68414829501 | 64165668937 | 29327676864 | 47958317258 |  | 
2 | Vimentin: recombinant human vimentin (PeproTech), RA autoantigen; native or citrullinated by PAD2 or PAD4 | 1199521932007 | 1060709356015 | 1237469794972 |  | 1096666848298 | 949352273349 |  | 979669399242 | 1132521940814
